Measurements reported in the supplement of paper PMC10849652.
The list shows a part of the results.

Amino acid sequences for entries named in this document (tags omitted). A change or cut given only in a name is not applied to a line headed by its entry.
UniProt Q5U5X0: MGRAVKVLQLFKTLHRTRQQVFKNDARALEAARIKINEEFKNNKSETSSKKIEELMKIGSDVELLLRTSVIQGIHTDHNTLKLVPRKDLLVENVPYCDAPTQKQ
UniProt P02788: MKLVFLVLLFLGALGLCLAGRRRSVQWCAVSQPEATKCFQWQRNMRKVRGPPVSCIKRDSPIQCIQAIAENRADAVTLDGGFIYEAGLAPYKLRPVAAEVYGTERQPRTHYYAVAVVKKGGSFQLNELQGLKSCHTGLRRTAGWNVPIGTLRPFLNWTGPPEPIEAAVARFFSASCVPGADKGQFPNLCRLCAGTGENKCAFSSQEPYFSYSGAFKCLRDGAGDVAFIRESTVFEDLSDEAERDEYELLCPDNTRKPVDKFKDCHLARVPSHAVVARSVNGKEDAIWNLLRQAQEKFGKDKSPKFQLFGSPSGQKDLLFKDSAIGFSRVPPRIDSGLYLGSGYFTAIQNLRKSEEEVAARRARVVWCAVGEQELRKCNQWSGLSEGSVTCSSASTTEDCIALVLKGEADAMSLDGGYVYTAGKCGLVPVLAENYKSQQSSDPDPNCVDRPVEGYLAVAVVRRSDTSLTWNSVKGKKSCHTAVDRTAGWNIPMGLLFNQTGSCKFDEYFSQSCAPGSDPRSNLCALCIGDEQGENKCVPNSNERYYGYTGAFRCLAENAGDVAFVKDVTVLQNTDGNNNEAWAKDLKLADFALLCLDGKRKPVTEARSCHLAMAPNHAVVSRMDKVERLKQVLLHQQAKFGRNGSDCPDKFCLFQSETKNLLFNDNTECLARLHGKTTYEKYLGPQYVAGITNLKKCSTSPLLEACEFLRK
UniProt P27816: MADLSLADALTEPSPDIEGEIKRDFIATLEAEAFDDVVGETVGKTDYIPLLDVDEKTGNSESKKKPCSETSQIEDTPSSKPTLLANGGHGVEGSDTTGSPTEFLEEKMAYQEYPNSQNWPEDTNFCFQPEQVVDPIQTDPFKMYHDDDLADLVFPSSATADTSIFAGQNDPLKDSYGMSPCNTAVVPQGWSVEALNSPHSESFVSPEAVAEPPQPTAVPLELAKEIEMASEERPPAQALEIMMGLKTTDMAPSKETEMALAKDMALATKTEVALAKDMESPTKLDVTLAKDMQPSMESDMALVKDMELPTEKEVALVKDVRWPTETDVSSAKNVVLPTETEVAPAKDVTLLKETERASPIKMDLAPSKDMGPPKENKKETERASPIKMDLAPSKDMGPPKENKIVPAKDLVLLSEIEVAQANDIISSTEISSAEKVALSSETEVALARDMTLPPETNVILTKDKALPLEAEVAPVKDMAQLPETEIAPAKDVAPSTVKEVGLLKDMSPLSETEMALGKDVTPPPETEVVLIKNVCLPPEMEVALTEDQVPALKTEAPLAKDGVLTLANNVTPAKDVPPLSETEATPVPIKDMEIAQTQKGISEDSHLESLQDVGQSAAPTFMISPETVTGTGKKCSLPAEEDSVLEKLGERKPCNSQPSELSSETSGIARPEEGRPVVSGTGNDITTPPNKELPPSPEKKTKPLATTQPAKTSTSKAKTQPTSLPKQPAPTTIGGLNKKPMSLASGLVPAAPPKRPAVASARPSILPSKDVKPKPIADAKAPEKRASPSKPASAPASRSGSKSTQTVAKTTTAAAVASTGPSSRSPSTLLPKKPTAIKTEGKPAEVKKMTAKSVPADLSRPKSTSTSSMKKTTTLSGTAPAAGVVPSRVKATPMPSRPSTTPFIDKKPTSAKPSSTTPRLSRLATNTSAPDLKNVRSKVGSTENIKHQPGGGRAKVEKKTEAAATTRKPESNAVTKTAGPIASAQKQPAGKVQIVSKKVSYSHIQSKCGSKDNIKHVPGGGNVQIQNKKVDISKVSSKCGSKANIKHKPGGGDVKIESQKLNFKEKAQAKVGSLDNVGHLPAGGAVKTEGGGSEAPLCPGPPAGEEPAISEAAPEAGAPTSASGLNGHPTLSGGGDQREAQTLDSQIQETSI
UniProt P56192: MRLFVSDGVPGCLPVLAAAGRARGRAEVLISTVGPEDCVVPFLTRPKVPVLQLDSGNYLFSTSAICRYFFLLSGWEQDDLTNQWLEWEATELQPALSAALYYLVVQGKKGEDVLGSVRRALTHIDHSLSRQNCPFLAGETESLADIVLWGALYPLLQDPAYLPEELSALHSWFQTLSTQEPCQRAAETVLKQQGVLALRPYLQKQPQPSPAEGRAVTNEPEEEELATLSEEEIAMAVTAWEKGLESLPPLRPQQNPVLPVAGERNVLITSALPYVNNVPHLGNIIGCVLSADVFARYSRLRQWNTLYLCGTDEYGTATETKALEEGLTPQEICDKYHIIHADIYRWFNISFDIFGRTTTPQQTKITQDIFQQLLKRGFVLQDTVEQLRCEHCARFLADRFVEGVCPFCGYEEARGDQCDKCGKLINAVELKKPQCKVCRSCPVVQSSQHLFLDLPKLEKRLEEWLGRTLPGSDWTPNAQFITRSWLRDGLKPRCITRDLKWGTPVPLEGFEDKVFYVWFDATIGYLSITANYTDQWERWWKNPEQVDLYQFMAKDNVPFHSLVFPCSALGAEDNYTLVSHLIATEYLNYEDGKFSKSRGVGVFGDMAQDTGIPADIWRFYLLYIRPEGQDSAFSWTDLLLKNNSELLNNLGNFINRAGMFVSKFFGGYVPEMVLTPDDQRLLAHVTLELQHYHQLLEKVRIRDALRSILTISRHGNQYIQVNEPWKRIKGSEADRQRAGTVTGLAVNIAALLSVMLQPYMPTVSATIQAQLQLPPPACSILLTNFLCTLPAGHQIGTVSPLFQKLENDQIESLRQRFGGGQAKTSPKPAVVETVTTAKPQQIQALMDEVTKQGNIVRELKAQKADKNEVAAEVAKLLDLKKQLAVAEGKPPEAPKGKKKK
UniProt Q16659, whole entry, looked up: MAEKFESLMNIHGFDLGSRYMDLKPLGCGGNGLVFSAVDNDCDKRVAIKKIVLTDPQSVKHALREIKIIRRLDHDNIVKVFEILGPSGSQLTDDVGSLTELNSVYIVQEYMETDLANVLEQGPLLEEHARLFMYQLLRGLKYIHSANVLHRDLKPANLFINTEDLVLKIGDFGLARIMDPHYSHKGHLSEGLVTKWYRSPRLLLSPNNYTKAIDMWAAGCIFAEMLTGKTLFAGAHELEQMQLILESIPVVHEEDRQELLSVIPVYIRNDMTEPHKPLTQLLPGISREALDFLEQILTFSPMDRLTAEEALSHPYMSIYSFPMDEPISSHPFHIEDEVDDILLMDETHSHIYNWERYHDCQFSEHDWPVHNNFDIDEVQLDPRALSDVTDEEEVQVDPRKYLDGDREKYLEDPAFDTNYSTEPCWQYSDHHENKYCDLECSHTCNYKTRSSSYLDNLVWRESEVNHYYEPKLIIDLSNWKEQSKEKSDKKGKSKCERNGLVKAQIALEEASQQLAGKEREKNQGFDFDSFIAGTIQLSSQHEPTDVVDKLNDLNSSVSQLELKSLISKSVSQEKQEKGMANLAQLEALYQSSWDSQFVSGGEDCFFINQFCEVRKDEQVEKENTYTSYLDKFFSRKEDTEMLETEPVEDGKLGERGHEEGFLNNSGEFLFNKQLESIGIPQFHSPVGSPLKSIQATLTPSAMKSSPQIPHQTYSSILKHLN

Tests used:
Assay in all cases: log2 fold change, soluble protein after heating vs DMSO (PISA); higher = thermal stabilisation; K562 lysate, 10 uM; active = over 0.2 and 3.5 SD of the protein, either way, in both replicates (recomputed)
lapatinib = compound: CS(=O)(=O)CCNCc1ccc(-c2ccc3ncnc(Nc4ccc(OCc5cccc(F)c5)c(Cl)c4)c3c2)o1 [lapatinib]
Method in brief: (§1)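 Soluble protein was defined as the supernatant remaining after 21,000xg for 90 min, following pooling of heated aliquots and adjustment to 0.5% NP-40 at 4°C. Before that, crude K562 extract at 1 mg/mL protein in PBS pH 7.4 with 1 mM MgCl2 was treated with 10 μM compound for 30 min and heated for 3 min across 48°C-58°C. Quantification used TMTpro 16plex LC-MS/MS with channel sums equalised, and values are log-two fold changes in thermal stability relative to solvent controls from duplicates.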

pictilisib = compound: CS(=O)(=O)N1CCN(Cc2cc3nc(-c4cccc5[nH]ncc45)nc(N4CCOCC4)c3s2)CC1 [pictilisib]
Method in brief: as §1

crizotinib = compound: C[C@@H](Oc1cc(-c2cnn(C3CCNCC3)c2)cnc1N)c1c(Cl)ccc(F)c1Cl [crizotinib]
Method in brief: as §1

[1] = compound: C[C@H](C1=CC=C(C=C1)C(=O)NC2=C3C=CNC3=NC=C2)N
Method in brief: as §1

duvelisib = compound: C[C@H](Nc1ncnc2nc[nH]c12)c1cc2cccc(Cl)c2c(=O)n1-c1ccccc1 [duvelisib]
Method in brief: as §1

gandotinib = compound: Cc1cc(Nc2cc(CN3CCOCC3)c3nc(C)c(Cc4ccc(Cl)cc4F)n3n2)n[nH]1 [gandotinib]
Method in brief: as §1

tozasertib = compound: Cc1cc(Nc2cc(N3CCN(C)CC3)nc(Sc3ccc(NC(=O)C4CC4)cc3)n2)n[nH]1 [tozasertib]
Method in brief: as §1

doramapimod = compound: Cc1ccc(-n2nc(C(C)(C)C)cc2NC(=O)Nc2ccc(OCCN3CCOCC3)c3ccccc23)cc1 [doramapimod]
Method in brief: as §1

bafetinib = compound: Cc1ccc(NC(=O)c2ccc(CN3CC[C@H](N(C)C)C3)c(C(F)(F)F)c2)cc1Nc1nccc(-c2cncnc2)n1 [bafetinib]
Method in brief: as §1

[2] = compound: Cc1cccc(CC(=O)N2CCc3c2ccc(-c2cn(C)c4ncnc(N)c24)c3F)n1
Method in brief: as §1

nilotinib = compound: Cc1cn(-c2cc(NC(=O)c3ccc(C)c(Nc4nccc(-c5cccnc5)n4)c3)cc(C(F)(F)F)c2)cn1 [nilotinib]
Method in brief: as §1

[3] = compound: Cc1nc(Nc2n[nH]c3c2CN(C(=O)N[C@H](CN(C)C)c2ccccc2)C3(C)C)c2sccc2n1
Method in brief: as §1

dasatinib = compound: Cc1nc(Nc2ncc(C(=O)Nc3c(C)cccc3Cl)s2)cc(N2CCN(CCO)CC2)n1 [dasatinib]
Method in brief: as §1

[4] = compound: Cc1ncc(-c2ccnc(Nc3ccc(S(C)(=O)=O)cc3)n2)n1C(C)C
Method in brief: as §1

[5] = compound: Cn1cc(-c2ccc3c(c2)CCN3C(=O)Cc2cccc(C(F)(F)F)c2)c2c(N)ncnc21
Method in brief: as §1

quisinostat = compound: Cn1cc(CNCC2CCN(c3ncc(C(=O)NO)cn3)CC2)c2ccccc21 [quisinostat]
Method in brief: as §1

tipifarnib = compound: Cn1cncc1[C@@](N)(c1ccc(Cl)cc1)c1ccc2c(c1)c(-c1cccc(Cl)c1)cc(=O)n2C [tipifarnib]
Method in brief: as §1

[6] = compound: NC(=O)Nc1cc(-c2cccc(F)c2)sc1C(=O)N[C@H]1CCCNC1
Method in brief: as §1

[7] = compound: NC(=O)c1cnc(N[C@@H]2CCCC[C@@H]2N)nc1Nc1cccc(-n2nccn2)c1
Method in brief: as §1

[8] = compound: NC1(c2ccc(-c3nc4ccn5c(=O)[nH]nc5c4cc3-c3ccccc3)cc2)CCC1
Method in brief: as §1

Measured: log2 fold change

LYRM7 (UniProt Q5U5X0)
inactive: lapatinib 0.018 | pictilisib -0.059 | crizotinib 0.018 | [1] -0.018 | duvelisib -0.066 | gandotinib 0.033 | tozasertib -0.007 | doramapimod -0.024 | bafetinib -0.013 | [2] -0.027 | nilotinib -0.02 | [3] -0.03 | dasatinib 0.004 | [4] 0.079 | [5] 0.011 | quisinostat 0.025 | tipifarnib 0.012 | [6] 0.021 | [7] 0.009 | [8] 0.047

LTF (UniProt P02788)
inactive: lapatinib 0.112 | pictilisib 0.173 | crizotinib 0.56 | [1] 0.143 | duvelisib 0.259 | gandotinib -0.151 | tozasertib 0.288 | doramapimod -0.248 | bafetinib 0.073 | [2] 0.5 | nilotinib -0.045 | [3] 0.001 | dasatinib -0.012 | [4] -0.121 | [5] 0.278 | quisinostat 0.166 | tipifarnib -0.126 | [6] -0.015 | [7] -0.054 | [8] 0.048

MAP4 (UniProt P27816)
inactive: lapatinib -0.002 | pictilisib 0.012 | crizotinib 0.013 | [1] -0.032 | duvelisib -0.004 | gandotinib 0.058 | tozasertib -0.014 | doramapimod -0.044 | bafetinib 0.018 | [2] -0.007 | nilotinib -0.002 | [3] -0.001 | dasatinib 0.013 | [4] 0.016 | [5] -0.036 | quisinostat -0.001 | tipifarnib 0.012 | [6] -0.034 | [7] -0.011 | [8] -0.003

MACF1 isoform 3 (UniProt Q9UPN3)
inactive: lapatinib 0.019 | pictilisib -0.017 | crizotinib -0.004 | [1] -0.042 | duvelisib -0.004 | gandotinib -0.009 | tozasertib 0.005 | doramapimod 0.008 | bafetinib -0.025 | [2] 0.045 | nilotinib -0.009 | [3] 0.006 | dasatinib -0.003 | [4] -0.002 | [5] -0.002 | quisinostat -0.01 | tipifarnib 0.012 | [6] 0.02 | [7] -0.002 | [8] -0.003

MAK16 (UniProt Q9BXY0)
inactive: lapatinib -0.05 | pictilisib -0.072 | crizotinib -0.026 | [1] 0.021 | duvelisib 0.028 | gandotinib 0.02 | tozasertib 0.019 | doramapimod -0.003 | bafetinib -0.015 | [2] -0.001 | nilotinib -0.01 | [3] -0.019 | dasatinib 0.002 | [4] 0.047 | [5] 0.034 | quisinostat 0.06 | tipifarnib 0.021 | [6] 0.011 | [7] -0.044 | [8] 0.016

LYAR (UniProt Q9NX58)
active: [1] 0.269
inactive: lapatinib 0 | pictilisib 0.025 | crizotinib 0.005 | duvelisib 0.017 | gandotinib -0.119 | tozasertib -0.025 | doramapimod -0.017 | bafetinib -0.008 | [2] -0.099 | nilotinib 0.01 | [3] -0.021 | dasatinib 0.002 | [4] 0.005 | [5] 0.014 | quisinostat 0.003 | tipifarnib 0 | [6] -0.002 | [7] -0.016 | [8] -0.012

MARS (UniProt P56192)
inactive: lapatinib -0.004 | pictilisib 0.017 | crizotinib -0.048 | [1] -0.001 | duvelisib -0.009 | gandotinib -0.061 | tozasertib 0.003 | doramapimod 0.025 | bafetinib -0.051 | [2] 0.045 | nilotinib 0 | [3] -0.002 | dasatinib -0.051 | [4] -0.009 | [5] 0.02 | quisinostat -0.056 | tipifarnib -0.015 | [6] 0.045 | [7] 0.005 | [8] -0.015

MAPK6 (UniProt Q16659)
inactive: lapatinib -0.038 | pictilisib -0.021 | crizotinib 0.025 | [1] 0.075 | duvelisib -0.008 | gandotinib -0.042 | tozasertib -0.024 | doramapimod -0.006 | bafetinib -0.028 | [2] -0.045 | nilotinib -0.065 | [3] 0.085 | dasatinib 0.032 | [4] 0.05 | [5] 0.039 | quisinostat -0.003 | tipifarnib -0.081 | [6] 0.055 | [7] 0.017 | [8] -0.028
